Consider two compounds from EP4314010B1, “MODIFIED PEPTIDOMIMETICS AND METHODS OF USE” (dated 2026).

Chains of the proteins cited; added tags and fusions are not shown. Lines headed by an entry give the natural chain unless they say otherwise; changes in a name come on top. Residues count along the entry.
UniProt P08246, 30-267 limits assumed: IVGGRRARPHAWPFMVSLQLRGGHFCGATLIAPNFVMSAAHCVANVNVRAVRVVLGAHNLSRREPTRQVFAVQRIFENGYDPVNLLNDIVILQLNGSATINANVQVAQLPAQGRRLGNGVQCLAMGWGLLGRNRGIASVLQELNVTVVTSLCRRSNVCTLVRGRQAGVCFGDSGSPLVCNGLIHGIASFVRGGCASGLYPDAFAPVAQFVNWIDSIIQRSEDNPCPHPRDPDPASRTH
UniProt Q96D31, whole entry: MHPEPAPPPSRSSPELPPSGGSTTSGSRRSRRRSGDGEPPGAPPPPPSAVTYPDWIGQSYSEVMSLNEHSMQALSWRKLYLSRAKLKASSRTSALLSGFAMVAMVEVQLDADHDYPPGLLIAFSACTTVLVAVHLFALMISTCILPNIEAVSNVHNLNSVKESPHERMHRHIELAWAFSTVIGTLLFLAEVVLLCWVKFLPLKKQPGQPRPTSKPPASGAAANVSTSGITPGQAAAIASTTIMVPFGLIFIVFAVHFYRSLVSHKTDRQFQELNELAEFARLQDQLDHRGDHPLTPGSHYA

Each structure is given as a SMILES string. The structures given here were assigned with low confidence; some may be wrong.

One data set deals with neutrophil elastase (Homo sapiens, UniProt P08246). The experiment in a line: Neutrophil elastase degradation, stopped with sivelestat, HPLC. As to conditions: for resistance to neutrophil elastase degradation: incubated with neutrophil elastase. The protocol: (§1) HEK293T cells were plated and incubated for 2 hours with Fluo-4 plus or minus ELD peptides, with fluorescent images taken every 30 seconds for 2-6 minutes at excitation/emission wavelengths of 488/530 nm. […] Candidate peptides ELD604 (not claimed), 607 (claimed), 601 (not claimed), and 100 (reference) were tested for resistance against protease degradation, wherein the peptides were incubated with neutrophil elastase, treated with the elastase inhibitor sivelestat at various timepoints to halt ongoing reactions, and then analyzed by HPLC (FIG. 9).
These peptides were not degraded by trypsin. Neutrophil elastase, which is one of the major proteases in the CF lung, was also tested. ELD601 was the shortest peptides generated and lacked valines, which are a substrate for neutrophil elastase. Also made was ELD604 (not claimed), which is ELD601 flanked with D-alanines to prevent exoproteases. […] Despite lacking valines, ELD601 was still degraded by elastase.
(§2) Endogenous Orai1/store operated Ca^2+ influx have been extensively studied in HEK293T cells, so this cell type was used to understand ELD607-Orai1 interactions. […] Thapsigargin is a SERCA pump inhibitor that prevents uptake of cytosolic Ca^2+ into the endoplasmic reticulum. Thapsigargin is commonly used to stimulate Orai1/store operated Ca^2+ influx. […] Dynamic light scattering (DLS) was used to evaluate binding of ELD607 to peptides of Orai1 extracellular loops. […] Thus, it was concluded that ELD607 interacts with Orai1.

A short description of data set [1]: SCNN1B (βENaC) overexpressing mice, chronic pulmonary inflammation. As to conditions: intranasal daily for 11 days. How it is done: (§3) During infection, increased SOCE and Orai1 activity leads to greater phosphorylation of Ca^2+-sensitive kinases (e.g., calcineurin) and activation of transcription factors (e.g., NFAT) leading to a pro-inflammatory response. […] The results were normalized to the baseline. Thapsigargin (Tg) at 1 µM was used as control. The inhibition of Ca^2+ release after scaffold peptide (ELD100; reference) addition is shown for comparison. […] The results were normalized to the baseline. Thapsigargin (Tg) at 1 µM was used as control. The inhibition of Ca^2+ release after ELD100 (reference) addition is shown for comparison. […] The results were normalized to the baseline. Thapsigargin (Tg) at 1 µM was used as control. The inhibition of Ca^2+ release after ELD100 (reference) addition is shown for comparison. […] The results were normalized to the baseline. Thapsigargin (Tg) at 1 µM was used as control. The inhibition of Ca^2+ release after ELD100 (reference) addition is shown for comparison. […] 1 h later, thapsigargin was added and the change in Fluo-4 fluorescence was measured. […] HEK293T cells were transfected with anti-Orai1 shRNA for 48 h and the change in Fluo4 fluorescence was measured. […] FIG. 16G panels B and C show plots showing fluorescence intensities of Orai1 in macrophages and neutrophils, respectively. *** p<0.001 different as indicated. […]

The nature of data set [2]: Stability in sputum (HPLC or mass spectrometry). The following applies: normal and CF sputum supernatant, 6 h at 37°C. How it is done: The reference ELD100 peptide was incubated overnight in cystic fibrosis (CF) patient sputum, size-fractionated and then analyzed by mass spectrometry without tryptic digest. […] ELD100 contained 16 residues. A series of peptides were generated including N-terminal, C-terminal and mid-peptide deletions to fully-optimize the peptide's size. […] Using this approach, a library was generated to fully optimize ELD100. […] The amino acid sequence modifications included alanine scanning, conservative mutations, shorter sequences and N- and C- terminus modifications (D-ala and Ser additions).
ELD607 is stable in CF sputum. CF sputum is highly proteolytic and SPLUNC1 is rapidly degraded in CF sputum. Therefore, it was tested whether ELD607 was stable in CF sputum. ELD607 was incubated with CF sputum supernatant for 6 h at 37°C, and then the reaction was halted by passing the sputum and ELD607 through a 10 kDa cut off spin column at 4°C. Using HPLC, a peak could be detected that corresponded to ELD607 (FIG. 11 panel A). […] To determine whether ELD607 remained functional after exposure to CF sputum, ELD607 that had been incubated for 6 h in either PBS or CF sputum was added to HEK293T cells. Consistent with ELD607 being stable in CF sputum, this peptide retained full functionality and was fully able to inhibit Ca^2+ influx even after pre-exposure to CF sputum (FIG. 11 panel C). […]

Data set [3] concerns the target Orai1 extracellular peptide 1 (OP1) (Homo sapiens, UniProt Q96D31). The experiment in a line: Dynamic light scattering binding to Orai1 extracellular loop peptide OP1. As to conditions: Orai1 amino acids 106-119.
Text: as §2

Data set [4] addresses T1, Orai1 (Homo sapiens, UniProt Q96D31). In words: Thapsigargin / Ca2+ add back assay (ER release vs SOCE) in HEK293T cells. How it is done:
as §3

The target of data set [5] is T1, Orai1. In words: Orai1 immunocytochemistry in immune cells of ARDS/bacterial pneumonia patients. As to conditions: paired samples of patient immune cells. An excerpt: We then performed Orai1 immunocytochemistry on paired samples of immune cells of ARDS/bacterial pneumonia patients. Cells derived from each patient were exposed to either vehicle, ELD607, or scrambled ELD607 (FIG. 27, panels D and E).

Data set [6] in a line: House dust mite allergic lung inflammation model. As to conditions: HDM 14 days; 0.5 mg/kg intranasally for 2 days before sacrifice. How it is done: During infection, increased SOCE and Orai1 activity leads to greater phosphorylation of Ca^2+-sensitive kinases (e.g., calcineurin) and activation of transcription factors (e.g., NFAT) leading to a pro-inflammatory response. […] The results were normalized to the baseline. Thapsigargin (Tg) at 1 µM was used as control. The inhibition of Ca^2+ release after scaffold peptide (ELD100; reference) addition is shown for comparison. […] The results were normalized to the baseline. Thapsigargin (Tg) at 1 µM was used as control. The inhibition of Ca^2+ release after ELD100 (reference) addition is shown for comparison. […] The results were normalized to the baseline. Thapsigargin (Tg) at 1 µM was used as control. The inhibition of Ca^2+ release after ELD100 (reference) addition is shown for comparison. […] The results were normalized to the baseline. Thapsigargin (Tg) at 1 µM was used as control. The inhibition of Ca^2+ release after ELD100 (reference) addition is shown for comparison. […] Peptides were exposed to NE over time, and the reaction was stopped by addition of sivelestat. HPLC was then performed in order to determine peptide stability. […] 1 h later, thapsigargin was added and the change in Fluo-4 fluorescence was measured. […] HEK293T cells were transfected with anti-Orai1 shRNA for 48 h and the change in Fluo4 fluorescence was measured. […] 100 nM thapsigargin was then added followed by extracellular Ca^2+ to differentiate ER Ca^2+ release and SOCE. n=8-12 cultures per data point. • FIGS. 15A-15D show (FIG. 15A) a schematic of a murine model of P. aeruginosa (top left panel), and bar graphs of (FIG. 15B) BAL monocytes, (FIG. 15C) BAL neutrophils, and (FIG. 15D) bacterial counts in whole lung at 24 hours quantified following experiments according to the mouse model as schematized and conditions as noted on the x-axis. • FIGS. 16A-16G show data from further P. aeruginosa infection experiments. […] FIG. 16G panels B and C show plots showing fluorescence intensities of Orai1 in macrophages and neutrophils, respectively. *** p<0.001 different as indicated. […]

Data set [7] relates to HEK293T cells. In words: Thapsigargin Fluo-4 response in HEK293T cells after peptide pre-incubation in CF sputum. The following applies: peptide incubated 6 h in CF sputum, then added to HEK293T cells. The protocol: as §3
The nature of data set [8]: Repeated intratracheal dosing safety study. The following applies: intratracheally 10 mg/kg daily for 7 days. How it is done: To assess the pharmacokinetics and safety of ELD607 in vivo, mice were treated intratracheally with 10 mg/kg ELD607 daily for 7 days. Mice were sacrificed at 7 days posttreatment.
The test system of the next data set is HEK294 T cells. In words: Cytotoxicity, calcein, plate reader. The following applies: 100 µM, 24 h. How it is done: ELD607 is non-toxic in vitro and in vivo. To investigate potential cytotoxic effects of ELD607, HEK294 T cells were exposed to 100 µM ELD607 for 24 h. Cytotoxicity was assessed by exposing cells to calcein to label live cells and fluorescence read by multi-plate reader. […] Primary human bronchial epithelial cultures were exposed to 1 mM ELD607 or vehicle control (saline) for 24 h. Cytotoxicity was assessed by confocal microscopy using calcein and propidium iodide to label live and dead cells respectively. […] Transepithelial resistance was also measured before and after treatment as a measure of epithelial integrity. No differences were found between vehicle and ELD607 treated epithelia (FIG. 28, panel D).

A short description of data set [9]: Stability in ARDS patient BAL samples. As to conditions: 8 h, 37°C. The protocol:
ELD607 is active in ARDS patient immune cells. Pulmonary neutrophilic inflammation and increased lung neutrophil elastase levels are common in ARDS patient lungs. We therefore evaluated whether ELD607 remained stable in BAL samples patients with ARDS caused by bacterial pneumonia. Consistent with ELD607 showing increased resistance to neutrophil elastase (FIG. 25, panel A), ELD607 remained stable over 8 h in ARDS BAL samples at 37°C (FIG. 27, panel A).

For data set [10], the system named is immune cells of ARDS/bacterial pneumonia patients. The experiment in a line: Thapsigargin-induced cytosolic Ca2+ (Fluo-4) in immune cells from ARDS/bacterial pneumonia patients. The following applies: tracheal aspirate immune cells, 1 h exposure. The protocol: We next obtained tracheal aspirates from intubated ARDS/bacterial pneumonia patients. We immediately isolated immune cells from these samples and simultaneously loaded them with the Ca^2+ dye Fluo-4 and exposed them to vehicle, ELD607 or scrambled peptide for 1 h. Thapsigargin elevated cytosolic Ca^2+ after vehicle or scrambled peptide exposure, but not after exposure to ELD607 (FIG. 27, panel C).

Data set [11] addresses T1, Orai1. In words: Store operated Ca2+ influx in HEK293T cells (Example 2). The following applies: α6 and ELD607 combined.
Text: as §2

The subject of data set [12] is HEK293T cells. The experiment in a line: Cytoplasmic Ca2+ (Fluo-4) in HEK293T cells incubated with ELD peptides. As to conditions: 2 hours with Fluo-4 plus or minus peptide, compared to a control scrambled peptide. The protocol:
as §1

Take `CC[C@H](C)[C@H](NC(=O)[C@H](CC(C)C)NC(=O)[C@H](CCSC)NC(=O)[C@H](CC(N)=O)NC(=O)[C@@H](NC(=O)[C@H](CC(=O)O)NC(=O)[C@@H](N)Cc1c[nH]cn1)[C@@H](C)CC)C(=O)N[C@@H](Cc1c[nH]cn1)C(=O)NCC(=O)O`: the “resistance to neutrophil elastase degradation” value at neutrophil elastase is reported as “still degraded by elastase”.

For `CC[C@H](C)[C@H](NC(=O)[C@H](CC(C)C)NC(=O)[C@H](CCSC)NC(=O)[C@H](CC(N)=O)NC(=O)[C@@H](NC(=O)[C@@H](NC(=O)[C@H](CC(=O)O)NC(=O)[C@H](Cc1c[nH]cn1)NC(=O)[C@@H](N)C(C)C)[C@@H](C)CC)C(C)C)C(=O)N[C@@H](CCCNC(=N)N)C(=O)NCC(=O)O`, the “BAL cells in WT littermate mice” value in data set [1] is “no effect on WT mice”. For the same compound, the “stability in sputum (HPLC area under the curve)” value in data set [2] was “Neither normal nor CF sputum diminished the area under the curve”. In data set [3], the “interaction with OP1 (Z-average, DLS)” value was “significant interactions”. For the same compound, the “stability after exposure to human neutrophil elastase relative to α6” value at neutrophil elastase (compared with α6) is on record as “four times more stable”. Further, on neutrophil elastase, the “resistance to neutrophil elastase degradation” value is “significant increase in stability”. At Orai1 [4] (HEK293T cells transfected with anti-Orai1 shRNA), the “Ca^2+ homeostasis after shRNA knockdown of Orai1” value is recorded as “no longer able to affect Ca^2+ homeostasis”. Moreover, on Orai1 [4] (absence of extracellular Ca^2+), the “thapsigargin-stimulated Ca^2+ release from the ER” value was “no effect”. On Orai1 [5], the “Orai1 levels (immunocytochemistry)” value was “significant reduction in Orai 1 levels”. Moreover, in data set [6], the BAL eosinophilia result is recorded as “significantly reduced”, the BAL macrophages result is reported as “increased BAL macrophages” and the BAL neutrophilia result is “significantly reduced BAL neutrophilia”. The “inhibition of Ca^2+ influx after pre-exposure to CF sputum” value in the data set on HEK293T cells [7] was “retained full functionality”. Besides, in data set [8], the body weight entry is “did not induce any changes” and the lung histology result is “did not induce any changes in lung histology”. Further, in the data set with HEK294 T cells, the “cytotoxicity (calcein fluorescence)” value is on record as “not significantly different to vehicle control”. For the same compound, the “stability in ARDS BAL samples” value in data set [9] is recorded as “remained stable over 8 h”. Besides, the “thapsigargin elevation of cytosolic Ca^2+” value in data set [10] is “but not after exposure to ELD607”. The “additivity of inhibitory effects on thapsigargin-induced elevations in cytosolic Ca^2+” value on Orai1 [11] is recorded as “not additive”. Further, the “cytoplasmic Ca^2+” value in the data set with HEK293T cells [12] is “reduced cytoplasmic calcium levels”.
